Results from the supplement of paper PMC12823440, “Inhibitors supercharge kinase turnover through native proteolytic circuits” (Nature, 2025).
The other results are listed elsewhere or left out. The calls rarely recur for the same compound in another form.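 Kinases were expressed as nanoluciferase fusions in K562 cells and luminescence was read every 4 h between 2 and 18 h as percent of control, DMSO set to 100% and a positive control to 0%. A time point counts as decreased when the signal drops significantly (2 sigma). The hit call is the authors' own, does not follow from the count of time points alone, and its rule is not shown.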

Protein sequences, listed by entry. Tags and fused reporters are not part of them. Lines headed by an entry give the natural chain unless they say otherwise; changes in a name come on top.
UniProt Q9Y616: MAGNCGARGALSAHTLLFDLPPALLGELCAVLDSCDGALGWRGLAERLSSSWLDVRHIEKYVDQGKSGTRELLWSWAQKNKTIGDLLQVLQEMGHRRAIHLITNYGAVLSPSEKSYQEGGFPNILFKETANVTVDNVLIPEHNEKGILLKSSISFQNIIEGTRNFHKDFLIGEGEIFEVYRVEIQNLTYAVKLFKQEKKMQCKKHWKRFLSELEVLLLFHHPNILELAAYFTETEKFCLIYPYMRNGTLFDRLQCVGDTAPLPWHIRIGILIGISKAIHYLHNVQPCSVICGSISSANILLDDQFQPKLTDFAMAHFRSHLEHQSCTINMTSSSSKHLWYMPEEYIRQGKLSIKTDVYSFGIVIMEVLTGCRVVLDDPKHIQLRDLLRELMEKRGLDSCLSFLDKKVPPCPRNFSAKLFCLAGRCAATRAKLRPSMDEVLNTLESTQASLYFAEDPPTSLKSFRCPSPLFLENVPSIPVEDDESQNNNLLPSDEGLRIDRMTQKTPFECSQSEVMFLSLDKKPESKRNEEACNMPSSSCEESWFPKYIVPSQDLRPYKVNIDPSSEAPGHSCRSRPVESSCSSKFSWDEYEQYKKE
UniProt P23458: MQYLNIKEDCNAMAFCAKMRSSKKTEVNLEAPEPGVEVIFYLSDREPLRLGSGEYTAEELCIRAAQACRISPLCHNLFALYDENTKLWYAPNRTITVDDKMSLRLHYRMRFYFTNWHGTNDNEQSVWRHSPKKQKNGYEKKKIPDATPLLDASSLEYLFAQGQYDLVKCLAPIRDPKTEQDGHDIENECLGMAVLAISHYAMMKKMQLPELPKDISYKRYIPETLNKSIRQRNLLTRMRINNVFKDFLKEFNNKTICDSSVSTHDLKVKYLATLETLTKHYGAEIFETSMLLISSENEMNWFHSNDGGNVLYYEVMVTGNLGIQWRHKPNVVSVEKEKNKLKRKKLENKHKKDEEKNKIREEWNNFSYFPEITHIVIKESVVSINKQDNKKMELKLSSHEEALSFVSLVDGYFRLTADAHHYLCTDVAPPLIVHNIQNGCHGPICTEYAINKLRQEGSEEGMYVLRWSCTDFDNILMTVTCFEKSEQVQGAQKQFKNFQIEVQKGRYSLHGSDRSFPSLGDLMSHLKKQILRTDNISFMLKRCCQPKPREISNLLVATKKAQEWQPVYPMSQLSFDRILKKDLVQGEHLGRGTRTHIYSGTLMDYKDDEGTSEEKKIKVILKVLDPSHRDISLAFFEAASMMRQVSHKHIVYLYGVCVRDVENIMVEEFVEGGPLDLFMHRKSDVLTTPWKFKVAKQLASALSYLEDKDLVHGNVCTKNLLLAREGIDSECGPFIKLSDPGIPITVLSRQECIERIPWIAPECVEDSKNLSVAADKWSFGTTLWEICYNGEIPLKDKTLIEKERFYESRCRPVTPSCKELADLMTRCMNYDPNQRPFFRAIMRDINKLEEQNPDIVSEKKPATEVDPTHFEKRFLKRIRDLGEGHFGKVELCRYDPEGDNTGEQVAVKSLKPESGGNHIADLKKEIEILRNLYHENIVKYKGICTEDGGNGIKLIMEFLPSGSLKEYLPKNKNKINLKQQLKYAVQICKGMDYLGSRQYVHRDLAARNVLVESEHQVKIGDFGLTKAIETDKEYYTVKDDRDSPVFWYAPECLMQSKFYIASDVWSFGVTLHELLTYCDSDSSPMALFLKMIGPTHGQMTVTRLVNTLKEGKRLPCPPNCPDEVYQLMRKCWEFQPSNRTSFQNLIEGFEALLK
UniProt P06239: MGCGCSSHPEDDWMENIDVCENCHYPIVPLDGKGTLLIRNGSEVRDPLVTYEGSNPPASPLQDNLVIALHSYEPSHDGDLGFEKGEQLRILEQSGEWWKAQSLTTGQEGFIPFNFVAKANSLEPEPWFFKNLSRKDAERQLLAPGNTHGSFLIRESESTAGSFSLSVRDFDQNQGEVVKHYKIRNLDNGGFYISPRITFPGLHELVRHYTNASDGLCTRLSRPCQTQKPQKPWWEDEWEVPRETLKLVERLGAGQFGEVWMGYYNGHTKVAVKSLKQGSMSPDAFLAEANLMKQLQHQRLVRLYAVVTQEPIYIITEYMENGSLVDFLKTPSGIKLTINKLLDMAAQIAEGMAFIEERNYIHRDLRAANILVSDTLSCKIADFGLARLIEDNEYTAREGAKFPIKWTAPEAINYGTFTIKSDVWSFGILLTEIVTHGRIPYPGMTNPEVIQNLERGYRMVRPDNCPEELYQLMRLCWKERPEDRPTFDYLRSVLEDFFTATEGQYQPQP
UniProt P53667: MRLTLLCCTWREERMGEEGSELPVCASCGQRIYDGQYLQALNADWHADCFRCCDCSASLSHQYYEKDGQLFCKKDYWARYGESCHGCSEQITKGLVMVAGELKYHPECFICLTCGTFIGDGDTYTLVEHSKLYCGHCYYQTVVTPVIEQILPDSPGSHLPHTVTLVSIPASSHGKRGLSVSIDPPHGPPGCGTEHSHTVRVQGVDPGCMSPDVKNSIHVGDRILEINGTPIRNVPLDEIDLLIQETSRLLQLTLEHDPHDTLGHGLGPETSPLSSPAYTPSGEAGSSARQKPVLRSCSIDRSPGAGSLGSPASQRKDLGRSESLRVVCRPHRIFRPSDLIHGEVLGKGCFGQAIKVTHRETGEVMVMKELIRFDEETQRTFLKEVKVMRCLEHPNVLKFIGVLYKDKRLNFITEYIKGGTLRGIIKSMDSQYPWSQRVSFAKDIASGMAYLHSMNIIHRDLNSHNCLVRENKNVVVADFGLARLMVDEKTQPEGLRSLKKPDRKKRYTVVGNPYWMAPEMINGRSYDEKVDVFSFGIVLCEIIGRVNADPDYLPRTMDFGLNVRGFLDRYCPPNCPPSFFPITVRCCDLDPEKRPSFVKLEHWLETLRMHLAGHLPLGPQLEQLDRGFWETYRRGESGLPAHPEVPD
UniProt P53671: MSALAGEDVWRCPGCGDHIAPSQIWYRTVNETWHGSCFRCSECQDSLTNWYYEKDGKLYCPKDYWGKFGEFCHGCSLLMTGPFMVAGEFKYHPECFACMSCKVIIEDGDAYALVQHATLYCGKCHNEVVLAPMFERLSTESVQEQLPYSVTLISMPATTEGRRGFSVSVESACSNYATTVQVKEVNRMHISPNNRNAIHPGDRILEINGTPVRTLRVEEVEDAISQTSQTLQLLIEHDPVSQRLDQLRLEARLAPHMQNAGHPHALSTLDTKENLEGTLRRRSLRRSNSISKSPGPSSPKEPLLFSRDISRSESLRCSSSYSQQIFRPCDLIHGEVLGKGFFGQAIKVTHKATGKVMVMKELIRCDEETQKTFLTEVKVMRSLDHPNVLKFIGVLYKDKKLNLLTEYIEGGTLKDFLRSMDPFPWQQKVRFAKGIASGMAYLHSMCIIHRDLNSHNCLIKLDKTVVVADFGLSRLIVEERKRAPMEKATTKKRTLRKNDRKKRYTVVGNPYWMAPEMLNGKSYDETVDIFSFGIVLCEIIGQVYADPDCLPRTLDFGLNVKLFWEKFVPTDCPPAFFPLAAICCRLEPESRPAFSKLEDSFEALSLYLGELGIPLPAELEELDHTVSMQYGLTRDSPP
UniProt Q8IWU2: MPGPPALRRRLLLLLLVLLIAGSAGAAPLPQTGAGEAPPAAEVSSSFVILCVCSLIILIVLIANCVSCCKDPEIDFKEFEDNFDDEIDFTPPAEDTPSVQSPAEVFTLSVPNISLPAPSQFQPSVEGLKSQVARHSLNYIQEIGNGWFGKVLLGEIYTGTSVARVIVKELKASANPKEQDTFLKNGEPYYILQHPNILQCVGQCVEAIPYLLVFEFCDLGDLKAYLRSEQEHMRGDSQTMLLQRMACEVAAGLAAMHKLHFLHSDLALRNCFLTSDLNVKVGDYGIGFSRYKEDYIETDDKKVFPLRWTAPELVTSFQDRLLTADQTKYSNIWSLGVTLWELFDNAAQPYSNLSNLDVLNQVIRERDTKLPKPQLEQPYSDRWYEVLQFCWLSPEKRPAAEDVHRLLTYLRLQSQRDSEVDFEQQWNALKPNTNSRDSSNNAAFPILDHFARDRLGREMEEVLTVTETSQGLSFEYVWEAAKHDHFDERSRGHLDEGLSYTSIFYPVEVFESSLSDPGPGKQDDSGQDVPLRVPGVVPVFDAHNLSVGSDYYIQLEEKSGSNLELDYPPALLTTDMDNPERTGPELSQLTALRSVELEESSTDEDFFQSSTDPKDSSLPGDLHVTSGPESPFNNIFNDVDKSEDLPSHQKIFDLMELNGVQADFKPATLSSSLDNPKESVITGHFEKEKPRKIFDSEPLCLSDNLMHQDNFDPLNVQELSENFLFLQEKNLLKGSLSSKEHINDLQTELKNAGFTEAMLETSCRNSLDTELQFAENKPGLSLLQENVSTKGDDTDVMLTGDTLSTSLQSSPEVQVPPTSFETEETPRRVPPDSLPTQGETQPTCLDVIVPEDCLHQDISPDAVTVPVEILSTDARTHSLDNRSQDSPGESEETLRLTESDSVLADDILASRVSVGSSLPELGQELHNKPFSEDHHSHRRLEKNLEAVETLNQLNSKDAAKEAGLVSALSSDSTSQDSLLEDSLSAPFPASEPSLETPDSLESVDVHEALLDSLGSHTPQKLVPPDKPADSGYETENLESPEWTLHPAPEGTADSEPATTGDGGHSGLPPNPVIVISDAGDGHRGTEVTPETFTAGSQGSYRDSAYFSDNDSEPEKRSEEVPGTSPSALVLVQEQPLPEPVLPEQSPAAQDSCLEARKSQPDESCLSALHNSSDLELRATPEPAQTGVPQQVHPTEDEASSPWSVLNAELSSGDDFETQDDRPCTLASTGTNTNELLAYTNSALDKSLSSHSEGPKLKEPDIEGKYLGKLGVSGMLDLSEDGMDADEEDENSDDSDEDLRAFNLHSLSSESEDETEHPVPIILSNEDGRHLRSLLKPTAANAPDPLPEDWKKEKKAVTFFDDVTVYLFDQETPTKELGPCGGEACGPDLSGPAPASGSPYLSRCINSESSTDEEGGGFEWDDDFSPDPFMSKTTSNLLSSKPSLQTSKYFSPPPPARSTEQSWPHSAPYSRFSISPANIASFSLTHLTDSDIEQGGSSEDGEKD
UniProt P07948: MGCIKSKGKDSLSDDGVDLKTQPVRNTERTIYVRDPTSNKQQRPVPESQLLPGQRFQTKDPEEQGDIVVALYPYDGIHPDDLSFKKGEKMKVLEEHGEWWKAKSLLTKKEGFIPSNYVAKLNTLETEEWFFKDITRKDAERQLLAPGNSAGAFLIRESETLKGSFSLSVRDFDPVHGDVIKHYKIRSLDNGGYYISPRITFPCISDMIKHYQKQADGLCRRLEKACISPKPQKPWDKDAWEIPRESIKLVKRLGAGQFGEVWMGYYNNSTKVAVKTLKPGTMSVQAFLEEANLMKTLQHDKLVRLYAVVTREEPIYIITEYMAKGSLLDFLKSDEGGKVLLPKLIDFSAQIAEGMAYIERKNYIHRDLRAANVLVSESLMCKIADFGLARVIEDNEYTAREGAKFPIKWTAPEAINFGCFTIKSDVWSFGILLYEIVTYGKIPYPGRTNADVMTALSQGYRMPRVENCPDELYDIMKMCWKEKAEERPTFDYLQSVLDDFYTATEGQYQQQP
UniProt Q12851: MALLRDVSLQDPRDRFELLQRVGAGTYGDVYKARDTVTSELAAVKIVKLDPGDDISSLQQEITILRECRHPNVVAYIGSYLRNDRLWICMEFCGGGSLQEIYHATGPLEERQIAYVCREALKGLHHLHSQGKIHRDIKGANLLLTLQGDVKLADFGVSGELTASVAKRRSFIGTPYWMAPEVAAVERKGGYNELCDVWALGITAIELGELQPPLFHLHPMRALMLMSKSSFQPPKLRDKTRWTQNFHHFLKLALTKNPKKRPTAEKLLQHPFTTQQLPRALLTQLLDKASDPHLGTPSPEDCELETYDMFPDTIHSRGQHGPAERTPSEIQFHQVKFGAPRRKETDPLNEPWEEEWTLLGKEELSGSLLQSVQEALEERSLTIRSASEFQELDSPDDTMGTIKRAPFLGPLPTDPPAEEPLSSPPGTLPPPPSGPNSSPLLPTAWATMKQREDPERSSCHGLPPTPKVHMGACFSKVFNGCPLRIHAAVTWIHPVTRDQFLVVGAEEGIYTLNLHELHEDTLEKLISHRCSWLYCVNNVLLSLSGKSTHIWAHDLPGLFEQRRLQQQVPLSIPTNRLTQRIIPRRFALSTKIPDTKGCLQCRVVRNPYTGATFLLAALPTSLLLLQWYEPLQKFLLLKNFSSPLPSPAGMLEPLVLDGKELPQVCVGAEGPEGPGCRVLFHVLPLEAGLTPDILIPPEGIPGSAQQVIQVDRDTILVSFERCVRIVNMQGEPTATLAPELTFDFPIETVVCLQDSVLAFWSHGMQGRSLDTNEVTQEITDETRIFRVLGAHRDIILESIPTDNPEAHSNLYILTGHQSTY

Legend:
Experiment in all cases: kinase-Nluc reporter destabilization hit call (1 = scored as downregulated) (binary); higher = compound decreases kinase abundance
Settings in all cases: K562; 2-18 h
IRAK3 = IRAK3 (UniProt Q9Y616)
JAK1 = JAK1 (UniProt P23458)
LCK = LCK (UniProt P06239)
LIMK1 = LIMK1 (UniProt P53667)
LIMK2 = LIMK2 (UniProt P53671)
LMTK2 = LMTK2 (UniProt Q8IWU2)
LYN = LYN (UniProt P07948)
MAP2K1 = MAP2K1 (UniProt Q02750)
MAP2K2 = MAP2K2 (UniProt P36507)
MAP4K2 = MAP4K2 (UniProt Q12851)

Measured: kinase-Nluc reporter destabilization hit call

COc1cc2cc(Oc3ccc4ccc(=O)oc4c3)c(=O)oc2cc1O [Daphnoretin] (10 µM)
inactive: IRAK3 = 0 | JAK1 = 0 | LCK 0 | LIMK1 = 0 | LIMK2 = 0 | LMTK2 = 0 | LYN 0 | MAP2K1 = 0 | MAP2K2 = 0 | MAP4K2 = 0

CN1CCN(c2ccc(Nc3ncc4cc(C#N)c(=O)n(C5CCCC5)c4n3)cc2)CC1 (10 µM)
inactive: IRAK3 = 0 | JAK1 = 0 | LCK 0 | LIMK1 = 0 | LIMK2 = 0 | LMTK2 = 0 | LYN 0 | MAP2K1 = 0 | MAP2K2 = 0 | MAP4K2 = 0

COc1cc2c(cc1OC)/C(=C/c1ccc(O)cc1)C(=O)N2 (10 µM)
inactive: IRAK3 = 0 | JAK1 = 0 | LCK 0 | LIMK1 = 0 | LIMK2 = 0 | LMTK2 = 0 | LYN 0 | MAP2K1 = 0 | MAP2K2 = 0 | MAP4K2 = 0

Cc1cc(-n2c(=O)ccc3c[nH]c4nccc-4c32)ccc1F (10 µM)
inactive: IRAK3 = 0 | JAK1 = 0 | LCK 0 | LIMK1 = 0 | LIMK2 = 0 | LMTK2 = 0 | LYN 0 | MAP2K1 = 0 | MAP2K2 = 0 | MAP4K2 = 0

Oc1c(F)cc(-c2cnccc2-c2ccc(N3CCOCC3)cc2)cc1F (10 µM)
inactive: IRAK3 = 0 | JAK1 = 0 | LCK 0 | LIMK1 = 0 | LIMK2 = 0 | LMTK2 = 0 | LYN 0 | MAP2K1 = 0 | MAP2K2 = 0 | MAP4K2 = 0

COc1cc2ncnc(Nc3ccc(O)c(Br)c3)c2cc1OC (10 µM)
inactive: IRAK3 = 0 | JAK1 = 0 | LCK 0 | LIMK1 = 0 | LIMK2 = 0 | LMTK2 = 0 | LYN 0 | MAP2K1 = 0 | MAP2K2 = 0 | MAP4K2 = 0

C=CC(=O)N1CC[C@@H](Oc2nc(Nc3ccc(N4CCC(N5CCN(C)CC5)CC4)cc3)c(C(N)=O)nc2CC)C1 [Naquotinib (mesylate)] (2.5 µM)
inactive: IRAK3 = 0 | JAK1 = 0 | LCK 0 | LIMK1 = 0 | LIMK2 = 0 | LMTK2 = 0 | LYN 0 | MAP2K1 = 0 | MAP2K2 = 0 | MAP4K2 = 0
